Measurements as given in the supplement of paper PMC4604168 (melanoma cell lines).
Some of the results follow. Single values are uncertain, as repeats are few or missing.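 The apoptosis fraction was the count of cleaved-PARP antibody-stained nuclei relative to all DNA-stained nuclei, imaged in 1,536-well plates. Screening doses were set so most cells survived, and baseline and induced cleaved-PARP levels vary greatly across cell lines.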

Key:
Experiment in all cases: cleaved PARP positive nuclei fraction relative to DMSO control; melanoma cells; higher = more apoptosis
Settings in all cases: library dose: low library concentration; 72 h
[1] = system: WM115
[2] = system: WM1716
[3] = system: WM1745
[4] = system: WM3526
[5] = system: WM3619
[6] = system: WM451Lu

## O=C(Nc1cccc(Cl)c1)Nc1ncc(CCNc2ncnc3ccsc23)s1 + O=c1cc(-c2cccc3c2Sc2ccccc2S3)oc(N2CCOCC2)c1 [KU55933] (first compound 0.0008 µM, partner dose 1 µM)
[1]
  cleaved PARP positive nuclei fraction: 21.7%
[2]
  cleaved PARP positive nuclei fraction: 13.9%
[3]
  cleaved PARP positive nuclei fraction: 115%
[4]
  cleaved PARP positive nuclei fraction: 38.4%
[5]
  cleaved PARP positive nuclei fraction: 80%
[6]
  cleaved PARP positive nuclei fraction: 132%

## Cn1nnc2c(C(N)=O)ncn2c1=O [temozolomide] + COC(=O)c1sccc1S(=O)(=O)Nc1ccc(Nc2ccccc2)cc1OC [GSK0660] (first compound 2 µM, partner dose 1 µM)
[1]
  cleaved PARP positive nuclei fraction: 62.7%
[2]
  cleaved PARP positive nuclei fraction: 65.9%
[3]
  cleaved PARP positive nuclei fraction: 136%
[4]
  cleaved PARP positive nuclei fraction: 65.6%
[5]
  cleaved PARP positive nuclei fraction: 89.5%
[6]
  cleaved PARP positive nuclei fraction: 129%

## NC(=O)Nc1cc(-c2cccc(F)c2)sc1C(=O)N[C@H]1CCCNC1 + CCc1ccc(CCOc2ccc(CC3SC(=O)NC3=O)cc2)nc1 [pioglitazone] (first compound 0.02 µM, partner dose 2 µM)
[1]
  cleaved PARP positive nuclei fraction: 239%
[2]
  cleaved PARP positive nuclei fraction: 95.7%
[3]
  cleaved PARP positive nuclei fraction: 97%
[4]
  cleaved PARP positive nuclei fraction: 76.7%
[5]
  cleaved PARP positive nuclei fraction: 268%
[6]
  cleaved PARP positive nuclei fraction: 61.7%

## OCCn1cc(-c2cnc3nnn(Cc4ccc5ncccc5c4)c3n2)cn1 + CCc1ccc(CCOc2ccc(CC3SC(=O)NC3=O)cc2)nc1 [pioglitazone] (first compound 1 µM, partner dose 2 µM)
[1]
  cleaved PARP positive nuclei fraction: 57.7%
[2]
  cleaved PARP positive nuclei fraction: 69%
[3]
  cleaved PARP positive nuclei fraction: 119%
[4]
  cleaved PARP positive nuclei fraction: 143%
[5]
  cleaved PARP positive nuclei fraction: 508%
[6]
  cleaved PARP positive nuclei fraction: 86.9%

## COCC[n+]1c2c(n(Cc3cnccn3)c1C)C(=O)c1ccccc1C2=O + COc1ccc(COc2ccc(Cc3cnc(N)nc3N)cc2OC)cc1 [GW2580] (first compound 0.0004 µM, partner dose 1 µM)
[1]
  cleaved PARP positive nuclei fraction: 178%
[2]
  cleaved PARP positive nuclei fraction: 59.7%
[3]
  cleaved PARP positive nuclei fraction: 99.2%
[4]
  cleaved PARP positive nuclei fraction: 68.6%
[5]
  cleaved PARP positive nuclei fraction: 55.7%
[6]
  cleaved PARP positive nuclei fraction: 247%

## C[C@]1(c2nc3c(C(N)=O)cccc3[nH]2)CCCN1 [Veliparib] + O=C1NC(=O)/C(=C/c2ccc(-c3ccc(F)cc3O)o2)S1 [AS252424] (first compound 1.4 µM, partner dose 1 µM)
[1]
  cleaved PARP positive nuclei fraction: 54.8%
[2]
  cleaved PARP positive nuclei fraction: 114%
[3]
  cleaved PARP positive nuclei fraction: 109%
[4]
  cleaved PARP positive nuclei fraction: 72.8%
[5]
  cleaved PARP positive nuclei fraction: 92.2%
[6]
  cleaved PARP positive nuclei fraction: 132%

## COc1cc(Nc2ncc(F)c(Nc3ccc4c(n3)NC(=O)C(C)(C)O4)n2)cc(OC)c1OC [Tamatinib] + COc1ccc(COc2ccc(Cc3cnc(N)nc3N)cc2OC)cc1 [GW2580] (first compound 0.4 µM, partner dose 1 µM)
[1]
  cleaved PARP positive nuclei fraction: 84.9%
[2]
  cleaved PARP positive nuclei fraction: 45.4%
[3]
  cleaved PARP positive nuclei fraction: 154%
[4]
  cleaved PARP positive nuclei fraction: 81.4%
[5]
  cleaved PARP positive nuclei fraction: 85.6%
[6]
  cleaved PARP positive nuclei fraction: 58.1%

## Cn1cncc1[C@@](N)(c1ccc(Cl)cc1)c1ccc2c(c1)c(-c1cccc(Cl)c1)cc(=O)n2C [tipifarnib] + CN(NC(=O)CC(=O)NN(C)C(=S)c1ccccc1)C(=S)c1ccccc1 [STA4783] (first compound 0.01 µM, partner dose 0.006 µM)
[1]
  cleaved PARP positive nuclei fraction: 391%
[2]
  cleaved PARP positive nuclei fraction: 348%
[3]
  cleaved PARP positive nuclei fraction: 469%
[4]
  cleaved PARP positive nuclei fraction: 32.7%
[5]
  cleaved PARP positive nuclei fraction: 233%
[6]
  cleaved PARP positive nuclei fraction: 78.3%

## Cn1c(Nc2ccc(C(F)(F)F)cc2)nc2cc(Oc3ccnc(-c4ncc(C(F)(F)F)[nH]4)c3)ccc21 + CO[C@@H]1[C@H](N(C)C(=O)c2ccccc2)C[C@H]2O[C@]1(C)n1c3ccccc3c3c4c(c5c6ccccc6n2c5c31)C(=O)NC4 [Midostaurin] (first compound 0.08 µM, partner dose 0.08 µM)
[1]
  cleaved PARP positive nuclei fraction: 416%
[2]
  cleaved PARP positive nuclei fraction: 264%
[3]
  cleaved PARP positive nuclei fraction: 207%
[4]
  cleaved PARP positive nuclei fraction: 229%
[5]
  cleaved PARP positive nuclei fraction: 120%
[6]
  cleaved PARP positive nuclei fraction: 124%

## C=CCNC1=C2C[C@@H](C)C[C@H](OC)[C@H](O)[C@@H](C)/C=C(\C)[C@H](OC(N)=O)[C@@H](OC)/C=C\C=C(/C)C(=O)NC(=CC1=O)C2=O [Tanespimycin] + Cc1cc(N2CCOCC2)cc2[nH]c(-c3c(NC[C@@H](O)c4cccc(Cl)c4)cc[nH]c3=O)nc12 [BMS536924] (first compound 0.002 µM, partner dose 0.2 µM)
[1]
  cleaved PARP positive nuclei fraction: 81%
[2]
  cleaved PARP positive nuclei fraction: 31.8%
[3]
  cleaved PARP positive nuclei fraction: 218%
[4]
  cleaved PARP positive nuclei fraction: 73.4%
[5]
  cleaved PARP positive nuclei fraction: 114%
[6]
  cleaved PARP positive nuclei fraction: 70%

## COc1cc(Nc2ncc(F)c(Nc3ccc4c(n3)NC(=O)C(C)(C)O4)n2)cc(OC)c1OC [Tamatinib] + NCC(=O)Nc1ccc(-n2nc(C(F)(F)F)cc2-c2ccc3c(ccc4ccccc43)c2)cc1 [OSU03012] (first compound 0.4 µM, partner dose 1 µM)
[1]
  cleaved PARP positive nuclei fraction: 49.7%
[2]
  cleaved PARP positive nuclei fraction: 151%
[3]
  cleaved PARP positive nuclei fraction: 124%
[4]
  cleaved PARP positive nuclei fraction: 114%
[5]
  cleaved PARP positive nuclei fraction: 111%
[6]
  cleaved PARP positive nuclei fraction: 477%

## Cc1nc(Nc2ncc(C(=O)Nc3c(C)cccc3Cl)s2)cc(N2CCN(CCO)CC2)n1 [dasatanib] + CCN(CC)CCCCNc1ncc2cc(-c3cc(OC)cc(OC)c3)c(NC(=O)NC(C)(C)C)nc2n1 [PD173074] (first compound 0.004 µM, partner dose 0.1 µM)
[1]
  cleaved PARP positive nuclei fraction: 206%
[2]
  cleaved PARP positive nuclei fraction: 209%
[3]
  cleaved PARP positive nuclei fraction: 165%
[4]
  cleaved PARP positive nuclei fraction: 61.6%
[5]
  cleaved PARP positive nuclei fraction: 162%
[6]
  cleaved PARP positive nuclei fraction: 202%

## COCC[n+]1c2c(n(Cc3cnccn3)c1C)C(=O)c1ccccc1C2=O + Cc1ccc(NC(=O)c2cccc(N(C)C)c2)cc1NC(=O)c1ccc(O)cc1 [ZM336372] (first compound 0.0004 µM, partner dose 2 µM)
[1]
  cleaved PARP positive nuclei fraction: 27.3%
[2]
  cleaved PARP positive nuclei fraction: 60.1%
[3]
  cleaved PARP positive nuclei fraction: 99.6%
[4]
  cleaved PARP positive nuclei fraction: 67.4%
[5]
  cleaved PARP positive nuclei fraction: 83.8%
[6]
  cleaved PARP positive nuclei fraction: 58%
